# Reference: patent publication EP4745151A1, “FIBROBLAST ACTIVATION PROTEIN LIGAND AND USE THEREOF” (Jiangsu Hengrui Pharmaceuticals Co., Ltd., priority 2023, dated 2025)
# Part of at least one peptide drawing is inferred or uncertain, most often the ends. Numbered stars: 1 amine (or outer) side, 2 acyl side, 3 side chain; on linkers, the order of the positions; unused ones are H or OH. Bridge positions count the residues as written; N and C are the ends. Square brackets hold non-standard residues; d marks the D form. Peptide text beside a SMILES is read from it. * marks the point of attachment. TBMB(SCH2CH2NH-DOTA) = O=C(O)CN1CCN(CC(=O)O)CCN(CC(=O)NCCSCc2cc(C[*:1])cc(C[*:2])c2)CCN(CC(=O)O)CC1; Phe(2-CF3) = N[C@@H](Cc1ccccc1C(F)(F)F)C(=O)O; Hyp = O=C(O)[C@@H]1C[C@@H](O)CN1; Hexanoyl = CCCCCC(=O)*; Aib = CC(C)(N)C(=O)O
# System: U-87 MG cells
# Assay: In vivo efficacy experiment in U-87 MG model mice
# Design: species or system B-NDG mice
# Experimental: A total of 90 mice were inoculated. When the tumour in the mice grew to about […], 40 mice with uniform tumour sizes were selected for study enrolment.
# The administration regimen was as follows: • Route of administration: tail vein injection; • Administration volume: 0.03-0.07 mL/animal; • Administration frequency and dose: The control group was given PBS, the ^177Lu-FAP-2286 group was given a single dose of 0.8 mCi/animal, the ^177Lu-DOTA-09 0.4mCi group was given a single dose of 0.4 mCi/animal, the ^177Lu-DOTA-09 0.8 mCi group was given a single dose of 0.8 mCi/animal, the ^177Lu-DOTA-09 0.8mCi×2 group was given two doses of 0.8 mCi/animal, with an administration interval of 35 days. Each group included eight animals. The administration time and administration activity of each mouse were recorded in detail.
# After tumour modelling, the tumour size was observed. On the day before administration or the day of administration, the tumour volume was measured using a digital calliper, and the animal body weight was recorded. The animals were evenly divided into five groups on the basis of tumour volume, as follows: control group, ^177Lu-FAP-2286 0.8 mCi group, ^177Lu-DOTA-09 0.4 mCi group, ^177Lu-DOTA-09 0.8 mCi group, and ^177Lu-DOTA-09 0.8 mCi*2 group, with eight animals in each group.
# On the day of administration, the test sample was taken for preparation (the stock solution of the test sample was directly used), and the activity of the prepared solution was measured.
# From the second day after administration, the stage of tumour and body weight measurement began. The tumour and body weight measurement was performed at least twice a week. During each measurement, the long and short diameters of the tumour were recorded. The measurements were kept at the same location as possible. The abnormalities and deaths of the animals were recorded in time. […] The tumour volume was calculated as follows: tumour volume (mm^3) = long diameter × short diameter × short diameter × 0.52.
smiles,measurement,setting,value
"CCCCCC(=O)N[C@H]1CSCc2cc(CSCCNC(=O)CN3CCN(CC(=O)O)CCN(CC(=O)O)CCN(CC(=O)O)CC3)cc(c2)CSC[C@@H](C(=O)O)NC(=O)[C@H](Cc2ccccc2C(F)(F)F)NC(=O)[C@H](CCC(N)=O)NC(=O)[C@H]([C@@H](C)O)NC(=O)[C@@H]2C[C@@H](O)CN2C(=O)[C@@H]2CCCN2C(=O)C(C)(C)NC1=O [^177Lu-DOTA-09, metal not drawn] (Hexanoyl-C[Aib]P[Hyp]TQ[Phe(2-CF3)]C-OH; linker 1-8 via TBMB(SCH2CH2NH-DOTA))",mice alive by day 59 after administration,0.8 mCi*2 group,about half of the mice remained alive
same,median survival time,"0.8 mCi*2 group (two doses, interval 35 days)",57.5 days
same,tumour inhibition rate,"day 20 after administration, 0.8 mCi*2 group",89.34%
same,tumour size,"day 20 after administration, 0.8 mCi*2 group (second dose on day 35)",326.04 ± 82.5 mm^3
same,tumour inhibition rate,"day 20 after administration, single dose of 0.4 mCi/animal",74.16%
same,tumour size,"day 20 after administration, single dose of 0.4 mCi/animal, tail vein",790.09 ± 618.40 mm^3
same,tumour inhibition rate,"day 20 after administration, single dose of 0.8 mCi/animal",89.72%
same,tumour size,"day 20 after administration, single dose of 0.8 mCi/animal, tail vein",314.25 ± 65.57 mm^3
same,tumour size,"day 46 after administration, 0.8 mCi*2 group (two doses, interval 35 days)",1735 ± 482.69 mm^3
same,tumour size,"day 46 after administration, single dose of 0.8 mCi/animal",3605.05 ± 803.40 mm^3
same,tumour growth inhibitory effect,"different doses, in words",certain tumour growth inhibitory effect
same,median survival time,single dose of 0.4 mCi/animal,42 days
same,median survival time,single dose of 0.8 mCi/animal,49 days
same,survival rate of U-87 MG model mice,"versus control group, in words",significantly improved
